Our source for the binding values is publication doi:10.1101/276733.

Amino acid sequences for entries named in this document (tags omitted). A change or cut given only in a name is not applied to a line headed by its entry. Residues count along the entry.
UniProt Q10567: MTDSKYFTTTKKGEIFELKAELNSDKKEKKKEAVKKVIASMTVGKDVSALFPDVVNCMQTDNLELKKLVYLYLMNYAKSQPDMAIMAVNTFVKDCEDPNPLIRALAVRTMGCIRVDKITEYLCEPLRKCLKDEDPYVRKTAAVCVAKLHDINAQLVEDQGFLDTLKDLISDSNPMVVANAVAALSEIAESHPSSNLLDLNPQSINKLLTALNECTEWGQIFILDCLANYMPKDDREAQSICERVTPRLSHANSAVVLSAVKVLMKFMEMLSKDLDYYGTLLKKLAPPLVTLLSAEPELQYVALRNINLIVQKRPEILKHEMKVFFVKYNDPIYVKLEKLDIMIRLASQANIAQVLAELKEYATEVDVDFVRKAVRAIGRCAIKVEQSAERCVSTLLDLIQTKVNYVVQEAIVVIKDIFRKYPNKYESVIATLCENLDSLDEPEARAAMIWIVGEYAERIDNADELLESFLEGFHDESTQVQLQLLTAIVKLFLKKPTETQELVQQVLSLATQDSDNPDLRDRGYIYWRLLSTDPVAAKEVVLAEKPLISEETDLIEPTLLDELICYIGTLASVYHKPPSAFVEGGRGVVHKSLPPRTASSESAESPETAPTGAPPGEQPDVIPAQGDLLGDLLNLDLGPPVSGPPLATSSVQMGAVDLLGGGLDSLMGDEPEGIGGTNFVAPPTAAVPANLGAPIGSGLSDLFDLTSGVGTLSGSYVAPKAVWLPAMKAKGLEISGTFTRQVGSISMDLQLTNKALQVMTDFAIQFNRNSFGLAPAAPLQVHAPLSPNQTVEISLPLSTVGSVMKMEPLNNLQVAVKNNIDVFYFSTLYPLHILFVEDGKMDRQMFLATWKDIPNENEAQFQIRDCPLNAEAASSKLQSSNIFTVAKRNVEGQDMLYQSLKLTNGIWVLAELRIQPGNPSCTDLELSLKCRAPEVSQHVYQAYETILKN
UniProt P22892: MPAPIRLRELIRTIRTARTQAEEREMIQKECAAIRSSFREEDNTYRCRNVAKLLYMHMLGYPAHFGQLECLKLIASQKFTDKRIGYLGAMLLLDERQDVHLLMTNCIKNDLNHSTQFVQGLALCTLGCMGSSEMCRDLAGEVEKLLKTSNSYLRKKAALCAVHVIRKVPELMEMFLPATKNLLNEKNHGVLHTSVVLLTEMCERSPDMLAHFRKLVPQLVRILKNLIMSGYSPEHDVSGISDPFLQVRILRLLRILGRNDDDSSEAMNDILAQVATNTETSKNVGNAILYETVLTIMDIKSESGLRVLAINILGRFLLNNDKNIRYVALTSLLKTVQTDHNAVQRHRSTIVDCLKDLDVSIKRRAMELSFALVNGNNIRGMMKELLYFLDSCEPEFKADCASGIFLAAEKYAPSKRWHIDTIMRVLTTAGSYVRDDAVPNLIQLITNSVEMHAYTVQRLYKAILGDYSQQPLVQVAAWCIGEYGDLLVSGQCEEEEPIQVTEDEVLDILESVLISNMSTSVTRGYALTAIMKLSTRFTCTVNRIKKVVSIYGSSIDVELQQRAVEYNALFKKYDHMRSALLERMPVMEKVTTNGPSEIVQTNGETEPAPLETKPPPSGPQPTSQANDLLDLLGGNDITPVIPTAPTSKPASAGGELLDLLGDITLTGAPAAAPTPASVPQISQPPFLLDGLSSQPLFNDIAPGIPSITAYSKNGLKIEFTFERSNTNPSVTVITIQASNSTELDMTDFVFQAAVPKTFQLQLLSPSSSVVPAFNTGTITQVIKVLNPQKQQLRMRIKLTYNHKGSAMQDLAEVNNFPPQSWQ
UniProt P84077, residues 17-181: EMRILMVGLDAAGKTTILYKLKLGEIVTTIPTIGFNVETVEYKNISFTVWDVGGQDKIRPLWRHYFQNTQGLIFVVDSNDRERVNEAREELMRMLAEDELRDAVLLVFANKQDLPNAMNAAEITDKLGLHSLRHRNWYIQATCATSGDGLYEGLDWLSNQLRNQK

These are yes or no findings as the source states them, for the method shown. A result given as binding can be weak or reduced; the word gives no strength.

Assay [1] addresses AP-1 β1 subunit (in the AP-1 core) (UniProt Q10567). The assay is described as follows: cryo-EM structure.
The target of assay [2] is AP-1 γ subunit (in the AP-1 core) (UniProt P22892). The assay is described as follows: cryo-EM structure.

Regarding Arf1-GTP (from UniProt P84077 17-181), the binding entry in assay [1] and in assay [2] was “binds” in each case.
